From publication doi:10.1101/2023.09.28.559893 come the findings set out here.

The chains behind the UniProt entries cited, without tags or fusion partners. Where a name states a change or a piece, a line headed by the entry shows the natural chain unless it says otherwise.
UniProt Q9NWF9, whole entry, stated change not applied: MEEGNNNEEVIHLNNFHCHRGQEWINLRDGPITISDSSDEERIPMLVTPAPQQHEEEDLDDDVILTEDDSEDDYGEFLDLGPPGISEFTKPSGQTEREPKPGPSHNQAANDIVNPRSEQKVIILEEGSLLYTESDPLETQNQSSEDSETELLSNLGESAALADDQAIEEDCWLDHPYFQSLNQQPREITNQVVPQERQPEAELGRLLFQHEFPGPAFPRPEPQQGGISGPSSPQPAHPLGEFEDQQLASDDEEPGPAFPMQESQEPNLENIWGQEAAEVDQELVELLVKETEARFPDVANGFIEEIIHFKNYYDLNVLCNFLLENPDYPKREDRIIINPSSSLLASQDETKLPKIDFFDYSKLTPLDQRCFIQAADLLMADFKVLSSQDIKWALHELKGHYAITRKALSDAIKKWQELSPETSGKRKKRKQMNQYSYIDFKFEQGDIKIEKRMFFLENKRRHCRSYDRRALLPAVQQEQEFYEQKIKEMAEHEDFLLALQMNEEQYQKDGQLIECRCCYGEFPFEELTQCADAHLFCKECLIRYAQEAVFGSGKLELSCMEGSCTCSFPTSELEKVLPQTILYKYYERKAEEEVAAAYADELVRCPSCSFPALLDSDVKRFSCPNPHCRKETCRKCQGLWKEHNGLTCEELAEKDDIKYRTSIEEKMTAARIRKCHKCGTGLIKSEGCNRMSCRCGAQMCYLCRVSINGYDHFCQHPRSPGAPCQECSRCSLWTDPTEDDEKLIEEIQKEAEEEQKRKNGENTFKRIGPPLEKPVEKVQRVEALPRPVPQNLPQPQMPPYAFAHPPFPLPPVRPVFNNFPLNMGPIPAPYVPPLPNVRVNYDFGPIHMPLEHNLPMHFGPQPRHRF

No constants are given. Whether binding was seen depends on the method and setting. In cells and extracts the contact can be indirect. A yes stands for co-enrichment or nearness to the bait. Other partners may have been found.

The target of the test is TRIAD3A fused to an engineered biotin ligase (TurboID) (AAV-CAMKII-TRIAD3A-V5-TurboID) (UniProt Q9NWF9). Nature of the test: proximity labelling.

Consider “tau (mouse brain, biotinylated by TRIAD3A-TurboID) (from UniProt P10637-2)”, for which the binding result is reported as “binds”.
For “TARDBP/TDP-43 (from UniProt Q921F2 1-414)”, the binding entry is reported as “binds”.
